In PubChem BioAssay AID504834 (National Center for Advancing Translational Sciences (NCATS), 2011):
Screen size: about 320,000 compounds; about 22,000 (6.9%) were called active. Inconclusive means that the source gave no clear call. Such entries were picked first, then a sample of the others. Calls follow the shape of the dose curve; as a rule, active = well fitted inhibition curve with a large enough effect; inconclusive = small, poorly fitted or top-dose-only effect, or another doubt; inactive = no such curve, though single readings can be large or run the other way. Potencies of inconclusive entries are doubtful fits and often do not repeat.

Test: Primary qHTS for delayed death inhibitors of the malarial parasite plastid, 96 hour incubation
Conditions: P. falciparum luciferase reporter growth; series mostly up to 28.7 µM
How it was run: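 Two parasite generations (96 h, 37 C, 5% CO2) of compound exposure in infected erythrocytes (0.05% parasitemia, 2% hematocrit). Luciferase-reporter P. falciparum; decreased luminescence indicates inhibited growth, aimed at apicoplast-acting delayed death.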
Potency is read from the fitted curve at half-maximal effect.

SMILES	Potency
CCOC(=O)c1cccc(NC(=O)/C=C/c2ccc3c(c2)OCO3)c1	inconclusive: 3.7 µM [inhibitor, single point]
COc1cc(/C=N/n2c(COc3ccccc3)n[nH]c2=S)cc(OC)c1OC(C)=O	inconclusive: 18.5 µM [inhibitor, single point]
Cc1c(CN2CCCC(C)C2)c(O)n(CCO)c(=O)c1C#N (stereo not given)	inactive
Cc1ccc(CN2CCN(Cc3ccc(-n4cccn4)cc3C)CC2CCO)cc1 (stereo not given)	inactive
Cc1cccc(C)c1N(CC(=O)N(C)Cc1ccccc1)S(C)(=O)=O	inconclusive: 18.5 µM [inhibitor, single point]
Cc1[nH]nc(SCC(=O)N2CCC(C)CC2)c1[N+](=O)[O-]	inactive
Cc1ccc2nsnc2c1S(=O)(=O)NCCc1c(C)[nH]c2ccc(F)cc12	inconclusive: 9.28 µM [inhibitor, single point]
COc1ccc(CCNC(=O)CSCc2ccc([N+](=O)[O-])cc2)cc1	inconclusive: 11.7 µM [inhibitor, partial curve, poor fit]
COc1ccc(C)cc1NC(=O)CCC(=O)Nc1ccc2nc(N3CCN(C)CC3)cc(C)c2c1	inactive
Cc1ccc(Cl)cc1NC(=O)CCN1C(=O)C2C3CCC(C3)C2C1=O (stereo not given)	inactive
COc1ccc(C(=O)NCc2cccnc2)cc1C(=O)NCc1cccnc1	inconclusive: 18.5 µM [inhibitor, partial curve, poor fit]
Cc1ccc(S(=O)(=O)NCCNC(=O)c2ccccc2)cc1	inconclusive: 18.5 µM [inhibitor, single point]
O=C(C1CCC(=O)N(C2CCCC2)C1)N1CCN(c2ccc(Cl)cc2)CC1 (stereo not given)	inactive
Cc1nn(C)c(C)c1NC(=O)CN1CCC(O)(c2ccc3c(c2)OCO3)CC1	active: 10.4 µM
O=C(CN(c1cc(C(F)(F)F)ccc1Cl)S(=O)(=O)c1ccccc1)NCc1cccnc1	inconclusive: 0.0037 µM [inhibitor, full curve, poor fit]
CS(=O)(=O)Nc1cccc(C2=NN(C(=O)c3ccco3)C(c3ccco3)C2)c1 (stereo not given)	inconclusive: 1.85 µM [inhibitor, partial curve, poor fit]
O=C(CCc1c[nH]c2ccccc12)NC(Cc1ccccc1)C(=O)O (stereo not given)	inactive
CCOC(=O)C(C#N)=C1CCN(Cc2ccccc2)CC1	active: 7.38 µM
O=C1C2CCCN2C(=O)N1CCCCN1CCN(c2cccc(Cl)c2)CC1 (stereo not given)	active: 13.1 µM
CCC(C)Sc1ccc(-c2nc3ccc(C)cn3c2NC2CCCCC2)cc1 (stereo not given)	inconclusive: 14.7 µM [inhibitor, single point]
Cc1ccc(Nc2nnc(-c3ccccc3N)o2)cc1C	inactive
CCc1ccc(CCC(=O)Nc2ccc(C(=O)O)cc2)o1	inconclusive: 18.5 µM [inhibitor, single point]
CC(=O)N1CCN(c2ccc(NCc3ccc(C)s3)cc2)CC1	inconclusive: 18.5 µM [inhibitor, single point]
C=CCn1c(C)cc(-c2csc(NC)n2)c1C	inconclusive: 18.5 µM [inhibitor, single point]
CC(C)OP(=O)(c1ccc(N(C)C)cc1)C(Nc1ccccc1)c1ccccc1 (stereo not given)	inconclusive: 18.5 µM [inhibitor, single point]

SMILES	Potency
CCOC(=O)N1CCN(C(=O)CNC(=O)c2nn(-c3ccc(OC)c(OC)c3)c(=O)c3ccccc23)CC1	inconclusive: 3.29 µM [inhibitor, full curve]
COc1ccc(C(NC(=O)c2cc(OC)ccc2OC)c2ccccc2)cc1 (stereo not given)	inconclusive: 11.7 µM [inhibitor, single point]
COc1ccccc1NC(=O)N(CCCN1CCOCC1)Cc1cc2cc3c(cc2[nH]c1=O)OCO3	active: 8.28 µM
O=C1CC(Cc2ccccc2)C(=O)N1c1ncccn1 (stereo not given)	inconclusive: 1.65 µM [inhibitor, full curve]
CSCCC(NC(=O)CCNC(=O)c1ccccc1Cl)c1nc2ccccc2[nH]1 (stereo not given)	inactive
Cc1ccc(OCCNC(=O)c2cccc(Oc3ccc(C(F)(F)F)cc3[N+](=O)[O-])c2)cc1	inconclusive: 11.7 µM [inhibitor, single point]
COc1ccccc1C(C)NCC(=O)NC(=O)NCc1ccco1 (stereo not given)	inactive
CC(C)c1nnc(NC(=O)CCS(=O)(=O)Cc2ccccc2)s1	inactive
CC(C)c1ccc(C2CC(=O)N3CN(Cc4ccco4)CSC3=C2C#N)cc1 (stereo not given)	inconclusive: 11.7 µM [inhibitor, partial curve]
CC(=O)Nc1ccc(S(=O)(=O)Nc2c(NC3CCCCC3)c3ccccc3oc2=O)cc1	inconclusive: 18.5 µM [inhibitor, single point]
COC/C=C/C1=CC2=CC(=O)C(C)(OC(=O)c3cnc4ccccc4n3)C(=O)C2=CN1CCN1CCOCC1 (stereo not given)	active: 9.28 µM
Cc1ccc(NCC(=O)Nc2cccc(S(=O)(=O)N(C)C)c2)cc1S(=O)(=O)N1CCCCCC1	inconclusive: 9.28 µM [inhibitor, partial curve]
CCn1c(-c2cccn(Cc3ccc(Cl)cc3Cl)c2=O)n[nH]c1=S	inconclusive: 1.47 µM [inhibitor, single point]
Cc1c(NC(=O)C(C)OC(=O)C23CC4CC(CC(Br)(C4)C2)C3)c(=O)n(-c2ccccc2)n1C (stereo not given)	inactive
Nc1nc(Nc2ccc(Cl)cc2)nc(NCCO)c1[N+](=O)[O-]	inactive
Cc1nc2ccccn2c1C(=O)N/N=C/c1ccc([N+](=O)[O-])o1	active: 2.08 µM
Cc1[nH]c2ccccc2c1C(=O)C(=O)NC1CC1	inconclusive: 1.04 µM [inhibitor, partial curve, poor fit]
O=CN1CCN(C(=S)Nc2ccc(OC(F)F)cc2)CC1	inactive
CCCc1cc(C(=O)N2CCCC(Nc3ccc(C)c(C)c3)C2)n(C)n1 (stereo not given)	inactive
CCCCNC(=S)N1CCn2cccc2C1c1ccccc1 (stereo not given)	inconclusive: 13.1 µM [inhibitor, single point]
N=c1oc2cc(O)ccc2cc1C(=O)Nc1ccc(F)cc1	inactive
Cc1cc(=O)n2ccsc2n1	active: 13.1 µM
Cc1ccc(/C=N/NC(=O)c2nnn(-c3nonc3N)c2CNc2ccccc2)cc1	inactive
Cc1nc(NS(=O)(=O)c2cccs2)c2c3c(sc2n1)CCC3	inconclusive: 18.5 µM [inhibitor, single point]
Cc1cc(C(=O)Nc2ccc(Br)cc2)cs1	inconclusive: 18.5 µM [inhibitor, single point]

Shown with bars between the fields: entries from further up
SMILES | Potency
COc1ccc(C(NC(=O)c2cc(OC)ccc2OC)c2ccccc2)cc1 (stereo not given) | inconclusive: 11.7 µM [inhibitor, single point]
COc1ccccc1C(C)NCC(=O)NC(=O)NCc1ccco1 (stereo not given) | inactive
Cc1ccc(NCC(=O)Nc2cccc(S(=O)(=O)N(C)C)c2)cc1S(=O)(=O)N1CCCCCC1 | inconclusive: 9.28 µM [inhibitor, partial curve]
CCCc1cc(C(=O)N2CCCC(Nc3ccc(C)c(C)c3)C2)n(C)n1 (stereo not given) | inactive

Following part

SMILES	Potency
Cc1ccc(C(OCC(O)CNC(C)c2ccccc2)c2ccccc2)cc1 (stereo not given)	inconclusive: 5.86 µM [inhibitor, partial curve, poor fit]
N#CCCn1cc(C=C2C(=O)NC(=O)NC2=O)c(-c2ccccc2)n1	inactive
CN(CC(=O)Nc1cccc(F)c1)C(=O)CN1C(=O)C2CC=CCC2C1=O (stereo not given)	inactive
CCOCCOC(=O)NCCCCCCNC(=O)OCCOCC	inconclusive: 13.1 µM [inhibitor, single point]
CC(C)(C)n1ncc2c(=O)n(CC(=O)NCc3ccc(F)cc3)cnc21	active: 13.1 µM
CC(C)CC(c1nnnn1CCc1ccccc1)N1CCN(C(=O)c2ccco2)CC1 (stereo not given)	inconclusive: 4.15 µM [inhibitor, partial curve, poor fit]
O=c1[nH]c2cc3c(cc2cc1CN(Cc1nnnn1C1CCCC1)C1CCCC1)OCCO3	active: 9.28 µM
CCOC(=O)c1cc(-c2csc(COc3ccccc3)n2)on1	inactive
COc1ccc(N(CC(=O)NCc2ccccc2)C(=O)Cn2nnc(-c3ccccc3F)n2)cc1OC	inactive
O=C(O)CCCCCNC(=O)c1cccc(Br)c1	inactive
Cc1cnn2c(C3CC3)ccnc12	inconclusive: 4.15 µM [inhibitor, single point]
O=c1oc2ccccc2nc1/C=C(\O)c1ccc(Br)cc1	inconclusive: 11.7 µM [inhibitor, partial curve, poor fit]
CCc1nc2ccccc2c(C(=O)NCc2ccccc2)c1C	inconclusive: 18.5 µM [inhibitor, single point]
Cc1cnc(C(=O)OCC(=O)Nc2ccc(C)c(S(=O)(=O)N3CCCCC3)c2)cn1	inconclusive: 18.5 µM [inhibitor, single point]
CC1=C(C#N)C(=O)N(C)C(C)(C)C1	inconclusive: 13.1 µM [inhibitor, single point]
CC(OC(=O)c1cn(C)c2ccccc12)C(=O)N(C)c1ccccc1 (stereo not given)	inconclusive: 18.5 µM [inhibitor, single point]
CCN(CC)C(=S)SC1CCCCN(C(=O)c2ccc(F)cc2)C1=O (stereo not given)	inactive
N#Cc1c(/N=C/c2ccc(-c3ccccc3C(=O)O)o2)sc2c1CCCC2	inactive
CCOC(=O)C(NC(=O)C(Cc1ccc(N(CCCl)CCCl)cc1)NC(C)=O)C(C)C (stereo not given)	inactive
N/C(=N\OC(=O)Cc1ccc([N+](=O)[O-])cc1)c1cccc(Br)c1	inconclusive: 0.329 µM [inhibitor, full curve]
O=C(COc1ccc([N+](=O)[O-])cc1)Nc1ccc(C(=O)NCc2cccnc2)cc1	inactive
CCCC(=O)Nc1nc(C)c(-c2csc(Nc3ccccc3OC)n2)s1	active: 13.1 µM
COc1ccccc1C(=O)NNC(=O)c1ccncc1	inconclusive: 13.1 µM [inhibitor, single point]
Clc1ccc2nc(N3CCCCC3)sc2c1	inconclusive: 1.31 µM [inhibitor, partial curve, poor fit]
COc1ccc(C(=O)N(CCc2ccccc2)Cc2ccccc2)cc1S(=O)(=O)N1CCOCC1	active: 8.28 µM
